2 molecules from PMC10875708 (2024) can be followed below.

Chains of the proteins cited; added tags and fusions are not shown.
UniProt Q9UQE7: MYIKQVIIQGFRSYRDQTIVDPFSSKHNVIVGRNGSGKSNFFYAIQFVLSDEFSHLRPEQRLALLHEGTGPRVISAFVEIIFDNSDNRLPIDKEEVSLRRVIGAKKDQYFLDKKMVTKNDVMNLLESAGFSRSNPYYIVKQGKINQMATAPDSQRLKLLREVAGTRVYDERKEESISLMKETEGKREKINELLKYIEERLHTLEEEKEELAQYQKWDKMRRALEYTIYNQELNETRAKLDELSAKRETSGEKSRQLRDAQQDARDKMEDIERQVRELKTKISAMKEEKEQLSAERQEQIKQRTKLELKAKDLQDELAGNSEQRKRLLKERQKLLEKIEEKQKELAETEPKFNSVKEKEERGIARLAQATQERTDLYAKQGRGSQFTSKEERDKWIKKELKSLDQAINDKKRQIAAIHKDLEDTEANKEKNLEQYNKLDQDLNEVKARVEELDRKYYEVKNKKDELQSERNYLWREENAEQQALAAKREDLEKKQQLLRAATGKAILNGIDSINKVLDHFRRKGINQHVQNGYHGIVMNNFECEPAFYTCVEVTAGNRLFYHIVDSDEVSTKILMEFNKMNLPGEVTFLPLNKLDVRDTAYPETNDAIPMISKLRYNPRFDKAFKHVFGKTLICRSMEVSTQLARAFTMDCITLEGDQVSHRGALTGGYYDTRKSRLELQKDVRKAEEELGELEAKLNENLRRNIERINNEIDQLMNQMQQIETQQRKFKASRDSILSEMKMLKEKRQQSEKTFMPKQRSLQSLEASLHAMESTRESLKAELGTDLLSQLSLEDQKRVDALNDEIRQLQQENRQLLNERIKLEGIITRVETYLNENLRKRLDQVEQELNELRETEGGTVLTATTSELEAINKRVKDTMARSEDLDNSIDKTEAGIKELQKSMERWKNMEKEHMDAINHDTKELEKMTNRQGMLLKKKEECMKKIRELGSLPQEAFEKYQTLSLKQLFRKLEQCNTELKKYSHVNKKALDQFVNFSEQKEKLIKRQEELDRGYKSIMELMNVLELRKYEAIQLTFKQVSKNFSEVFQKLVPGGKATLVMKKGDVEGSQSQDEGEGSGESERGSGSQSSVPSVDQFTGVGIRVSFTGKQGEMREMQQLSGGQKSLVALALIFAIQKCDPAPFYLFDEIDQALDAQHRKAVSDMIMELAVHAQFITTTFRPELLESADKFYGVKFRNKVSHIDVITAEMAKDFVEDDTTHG

These are yes or no findings as the source states them, for the method shown. In cells and extracts the contact can be indirect. These calls come from enrichment with a bait or labelling near it, and not all partners need be listed.

The experiment deals with T1, Sulfotransferase family 2B member 1 (SULT2B1) (human (endogenous in HCT116)) (UniProt O00204).
T1 sequence: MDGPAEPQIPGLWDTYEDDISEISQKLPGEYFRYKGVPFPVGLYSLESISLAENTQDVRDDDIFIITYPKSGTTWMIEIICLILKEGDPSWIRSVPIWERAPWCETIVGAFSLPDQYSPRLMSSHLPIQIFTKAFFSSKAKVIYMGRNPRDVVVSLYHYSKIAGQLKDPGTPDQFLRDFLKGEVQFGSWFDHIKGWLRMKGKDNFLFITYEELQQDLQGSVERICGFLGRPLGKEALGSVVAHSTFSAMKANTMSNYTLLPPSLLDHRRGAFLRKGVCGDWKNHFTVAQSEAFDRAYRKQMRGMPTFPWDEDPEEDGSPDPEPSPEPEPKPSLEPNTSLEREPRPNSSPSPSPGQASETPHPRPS
As to the kind of experiment: affinity purification with mass spectrometry; IP of SULT2B1 from HCT116 whole-cell extract; bands stained with Coomassie, digested in gel, LC-MS/MS, searched against SwissProt Human.

Regarding “Structural maintenance of chromosomes 3 (SMC3) (from UniProt Q9UQE7 1-1217)”, the binding entry is given as “binds”.

B1: Structural maintenance of chromosomes 1A (SMC1A) (protein, UniProt Q14683 1-1233)
chain: MGFLKLIEIENFKSYKGRQIIGPFQRFTAIIGPNGSGKSNLMDAISFVLGEKTSNLRVKTLRDLIHGAPVGKPAANRAFVSMVYSEEGAEDRTFARVIVGGSSEYKINNKVVQLHEYSEELEKLGILIKARNFLVFQGAVESIAMKNPKERTALFEEISRSGELAQEYDKRKKEMVKAEEDTQFNYHRKKNIAAERKEAKQEKEEADRYQRLKDEVVRAQVQLQLFKLYHNEVEIEKLNKELASKNKEIEKDKKRMDKVEDELKEKKKELGKMMREQQQIEKEIKEKDSELNQKRPQYIKAKENTSHKIKKLEAAKKSLQNAQKHYKKRKGDMDELEKEMLSVEKARQEFEERMEEESQSQGRDLTLEENQVKKYHRLKEEASKRAATLAQELEKFNRDQKADQDRLDLEERKKVETEAKIKQKLREIEENQKRIEKLEEYITTSKQSLEEQKKLEGELTEEVEMAKRRIDEINKELNQVMEQLGDARIDRQESSRQQRKAEIMESIKRLYPGSVYGRLIDLCQPTQKKYQIAVTKVLGKNMDAIIVDSEKTGRDCIQYIKEQRGEPETFLPLDYLEVKPTDEKLRELKGAKLVIDVIRYEPPHIKKALQYACGNALVCDNVEDARRIAFGGHQRHKTVALDGTLFQKSGVISGGASDLKAKARRWDEKAVDKLKEKKERLTEELKEQMKAKRKEAELRQVQSQAHGLQMRLKYSQSDLEQTKTRHLALNLQEKSKLESELANFGPRINDIKRIIQSREREMKDLKEKMNQVEDEVFEEFCREIGVRNIREFEEEKVKRQNEIAKKRLEFENQKTRLGIQLDFEKNQLKEDQDKVHMWEQTVKKDENEIEKLKKEEQRHMKIIDETMAQLQDLKNQHLAKKSEVNDKNHEMEEIRKKLGGANKEMTHLQKEVTAIETKLEQKRSDRHNLLQACKMQDIKLPLSKGTMDDISQEEGSSQGEDSVSGSQRISSIYAREALIEIDYGDLCEDLKDAQAEEEIKQEMNTLQQKLNEQQSVLQRIAAPNMKAMEKLESVRDKFQETSDEFEAARKRAKKAKQAFEQIKKERFDRFNACFESVATNIDEIYKALSRNSSAQAFLGPENPEEPYLDGINYNCVAPGKRFRPMDNLSGGEKTVAALALLFAIHSYKPAPFFVLDEIDAALDNTNIGKVANYIKEQSTCNFQAIVISLKEEFYTKAESLIGVYPEQGDCVISKVLTFDLTKYPDANPNPNEQ
In the case of B1, the binding result is reported as “binds”.
